Source: US20250026718A1, “SOLID FORMS OF MESEMBRINE AND THERAPEUTIC USES THEREOF” (Sensorium Therapeutics, Inc., priority 2022, published 2025)
Some results were stated once for a whole list of compounds, not compound by compound. For at least one compound, name, drawing or mass did not settle the structure.

Test: kinetic solubility in H2O and bio-relevant media (SGF, FaSSIF, FeSSIF) at 37° C.
Type: physicochemical
Conditions: at 1, 2, 4 and 24 hrs
Protocol: • 1. Add about 40 mg of samples and 4 mL of corresponding medium into a 5-mL glass vial. The loading concentration was ˜10 mg/mL (calculated by freebase). • 2. Roll at 37° C. (˜25 rpm). Sample at 1, 2, 4 and 24 hrs. • 3. At each time-point, sample 0.8 mL of solution or suspension into a centrifuge tube prior to centrifugation (12000 rpm, 37° C., 5 min) and filtration through 0.45 μm PTFE membrane. • 4. Test pH and concentration for the filtrate. Analyze residual solids by XRPD.

Measured: kinetic solubility

COc1ccc(C23CCC(=O)CC2N(C)CC3)cc1OC.Cl (stereo not shown) [HCl Form A]
> 8300 µg/mL: FaSSIF | FeSSIF | H2O | SGF
